{
  "sequences": {"note": "Amino acid sequences for entries named in this document (tags omitted). A change or cut given only in a name is not applied to a line headed by its entry.", "UniProt Q9UNA4": "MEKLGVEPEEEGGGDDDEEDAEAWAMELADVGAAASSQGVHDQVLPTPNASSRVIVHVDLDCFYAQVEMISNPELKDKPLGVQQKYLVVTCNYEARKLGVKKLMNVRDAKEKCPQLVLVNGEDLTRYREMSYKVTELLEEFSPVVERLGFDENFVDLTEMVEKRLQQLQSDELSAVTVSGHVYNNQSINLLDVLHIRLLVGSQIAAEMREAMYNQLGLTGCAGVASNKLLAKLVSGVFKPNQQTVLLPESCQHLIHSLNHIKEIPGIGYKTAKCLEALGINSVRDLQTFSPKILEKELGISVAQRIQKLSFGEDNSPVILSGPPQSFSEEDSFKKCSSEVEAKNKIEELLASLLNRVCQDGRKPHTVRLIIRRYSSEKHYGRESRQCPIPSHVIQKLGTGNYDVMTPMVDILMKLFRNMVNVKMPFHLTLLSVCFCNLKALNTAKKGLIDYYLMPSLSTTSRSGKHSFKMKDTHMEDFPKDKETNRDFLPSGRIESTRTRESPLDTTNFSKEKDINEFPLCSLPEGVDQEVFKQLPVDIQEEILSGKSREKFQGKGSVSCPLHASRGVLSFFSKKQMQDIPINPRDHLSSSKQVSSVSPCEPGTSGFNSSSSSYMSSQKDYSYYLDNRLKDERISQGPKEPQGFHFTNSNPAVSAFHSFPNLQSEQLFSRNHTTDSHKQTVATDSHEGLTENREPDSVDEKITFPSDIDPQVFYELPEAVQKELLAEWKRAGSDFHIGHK"},
  "source": "PubChem BioAssay AID588590",
  "about": "(National Center for Advancing Translational Sciences (NCATS), 2011)",
  "note": "Hit rate of the full screen: of about 390,000 compounds, about 4,000 (1%) were called active. The inconclusive results got no clear call from the source; some entries with a clear call stand among them for comparison. Calls follow the shape of the dose curve; as a rule, active = well fitted inhibition curve with a large enough effect; inconclusive = small, poorly fitted or top-dose-only effect, or another doubt; inactive = no such curve, though single readings can be large or run the other way. Potencies of inconclusive entries are doubtful fits and often do not repeat. Potency is read from the fitted curve at half-maximal effect.",
  "data": [
    {"molecular_target": "DNA polymerase iota (Homo sapiens) (UniProt Q9UNA4)", "test": "qHTS for Inhibitors of Polymerase Iota", "details": "Pol iota fluorescent replication assay, 10 min; series mostly up to 115 µM; activity, negative = inhibition: at the top concentration", "in_short": "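Fluorescent replication assay read twice, at 0 min and 10 min after adding 50 nM (final) substrate. Enzyme (10 nM) and compounds were first incubated 15 min at room temperature; enzyme-free buffer wells were negative controls.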", "values": [
      {"smiles": "CC(/C=C1\\SC(=S)N(NC(=O)c2ccncc2)C1=O)=C\\c1ccccc1", "Potency": "inconclusive: 31.6 µM [inhibitor, partial curve, poor fit]"},
      {"smiles": "O=C(NCc1ccco1)C1CC(c2cccc([N+](=O)[O-])c2)=NO1", "note": "(configuration not stated)", "Potency": "inconclusive: 56.2 µM [inhibitor, partial curve, poor fit]"},
      {"smiles": "COCc1c(C(=O)Nc2ccc(Cl)cc2F)oc2ccccc12", "Potency": "inconclusive: 100 µM [inhibitor, single point]"},
      {"smiles": "COc1cc(NC(=O)N[C@H](C(=O)O)C(C)C)cc(OC)c1", "Potency": "inconclusive: 70.8 µM [inhibitor, partial curve, poor fit]"},
      {"smiles": "Cc1ccc(C)c(N2C(=O)N(Cc3ccccc3C)c3ccccc3S2(=O)=O)c1", "Potency": "inconclusive: 100 µM [inhibitor, partial curve, poor fit]"},
      {"smiles": "CC[C@H](C)[C@H]1CNC(=O)C(=O)N1CC1CCN(CC2CCC(C)CC2)CC1", "note": "(some centres not stated)", "Potency": "inconclusive: 63.1 µM [inhibitor, single point]"},
      {"smiles": "CCN1CCN(c2nc3c(C)cccn3c(=O)c2/C=C(\\C#N)S(=O)(=O)c2ccccc2)CC1", "Potency": "inconclusive: 112 µM [inhibitor, partial curve, poor fit]"},
      {"smiles": "COc1ccc(C#Cc2c(-c3ccccc3)n(C)c3ccccc23)cc1", "Potency": "inconclusive: 25.1 µM [inhibitor, partial curve, poor fit]"},
      {"smiles": "O=C(O)Cn1c(CC(=O)N2CCCC2)nc2ccccc21", "Potency": "inconclusive: 79.4 µM [inhibitor, full curve]"},
      {"smiles": "CC1CN(C(=O)Nc2ccc(C(=O)NCc3ccccc3F)cc2)c2ccccc2S1", "note": "(configuration not stated)", "Potency": "inconclusive: 2.51 µM [inhibitor, partial curve, poor fit]"},
      {"smiles": "CC1CCC/C(=N\\Nc2ccc(Cl)c(C(=O)O)c2)C1", "note": "(configuration not stated)", "Potency": "inconclusive: 22.4 µM [inhibitor, partial curve, poor fit]"},
      {"smiles": "CCSc1ncc(/C=N/Nc2ccccc2)n1C", "Potency": "inconclusive: 3.16 µM [inhibitor, full curve, poor fit]"},
      {"smiles": "O=c1[nH]c2c(=O)[nH]cnc2nc1-c1ccccc1", "Potency": "inconclusive: 100 µM [inhibitor, partial curve, poor fit]"},
      {"smiles": "O=C(O)/C=C/c1ccc(O)c(O)c1", "Potency": "inactive"},
      {"smiles": "Nc1nc(SCC(=O)NC2CCCC2)[nH]c(=O)c1NC(=O)c1cccs1", "Potency": "inconclusive: 17.8 µM [inhibitor, partial curve, poor fit]"},
      {"smiles": "CCCCOc1ccc(C(=O)NCC(c2ccc(Cl)cc2)N2CCOCC2)cc1", "note": "(configuration not stated)", "activity, negative = inhibition": "inactive: 24.8%"},
      {"smiles": "O=[N+]([O-])c1ccc(/C=C/C2=NN(c3ccccc3)C(c3ccco3)C2)cc1", "note": "(configuration not stated)", "Potency": "inconclusive: 25.1 µM [inhibitor, partial curve, poor fit]"},
      {"smiles": "N#Cc1ccc(/C=C/C(=O)c2ccc3c(c2)OCO3)cc1", "Potency": "inconclusive: 22.4 µM [inhibitor, single point]"},
      {"smiles": "O=C(O)c1[nH]c2ccccc2c1C(c1c(F)cccc1Cl)c1c(C(=O)O)[nH]c2ccccc12", "activity, negative = inhibition": "inactive: 1.88%"},
      {"smiles": "COc1ccc(CN2C(=O)CN=C2Nc2cc(C)ccc2C)cc1", "Potency": "inconclusive: 22.4 µM [inhibitor, full curve, poor fit]"},
      {"smiles": "CCC(C)CCN1CCN=C1N(C)C", "note": "(configuration not stated)", "Potency": "inconclusive: 12.6 µM [inhibitor, partial curve, poor fit]"},
      {"smiles": "Cc1ccc(S(=O)(=O)N/N=C\\c2ccc([N+](=O)[O-])o2)cc1", "Potency": "inconclusive: 10 µM [inhibitor, full curve]"},
      {"smiles": "CC(C)(C)c1ccc(C2=CC(c3ccccc3)n3ncnc3N2)cc1", "note": "(configuration not stated)", "Potency": "inconclusive: 39.8 µM [inhibitor, single point]"},
      {"smiles": "NS(=O)(=O)c1ccc(CCNC(=O)CSc2ccsc2[N+](=O)[O-])cc1", "Potency": "inconclusive: 20 µM [inhibitor, partial curve, poor fit]"},
      {"smiles": "O=S(=O)(Cc1cc(Cl)nc(-c2ccncc2)n1)c1ccccc1", "Potency": "inconclusive: 39.8 µM [inhibitor, partial curve, poor fit]"},
      {"smiles": "COc1ccc2c(c1)Cc1sc(NC(=O)c3ccccc3C)nc1-2", "Potency": "active: 3.55 µM"},
      {"smiles": "Cc1nc2ccc(C(=O)O)cc2[nH]1", "Potency": "inconclusive: 22.4 µM [inhibitor, partial curve, poor fit]"},
      {"smiles": "CC(Sc1nnc(C2CC2)n1C1CC1)C(=O)NCc1cccs1", "note": "(configuration not stated)", "Potency": "inconclusive: 3.16 µM [inhibitor, partial curve, poor fit]"},
      {"smiles": "CCc1ccc(S(=O)(=O)/N=C2\\C=C(NS(=O)(=O)c3ccccc3)C(=O)c3ccccc32)cc1", "Potency": "inconclusive: 14.1 µM [inhibitor, full curve, poor fit]"},
      {"smiles": "N#CC1=C(N)Oc2n[nH]c(-c3cccs3)c2C1c1ccoc1", "note": "(configuration not stated)", "Potency": "inconclusive: 2.82 µM [inhibitor, full curve, poor fit]"},
      {"smiles": "O=C1CC(C(=O)N2CCC(N3CCC(C(=O)NC4CC4)CC3)CC2)c2ccccc21", "note": "(configuration not stated)", "Potency": "inconclusive: 31.6 µM [inhibitor, full curve, poor fit]"},
      {"smiles": "CCc1ccc(NC(=O)Nc2cn(C)c(=O)c3ccccc23)cc1", "Potency": "inconclusive: 11.2 µM [inhibitor, full curve, poor fit]"},
      {"smiles": "N#CC1=C(SCC(=O)NCc2ccccc2)NC(=O)CC1c1ccco1", "note": "(configuration not stated)", "Potency": "inconclusive: 14.1 µM [inhibitor, single point]"},
      {"smiles": "Nn1c(-c2cccs2)nc2sc3c(c2c1=O)CCCC3", "Potency": "inconclusive: 11.2 µM [inhibitor, partial curve, poor fit]"},
      {"smiles": "COc1ccc(OC)c2sc(N(Cc3cccnc3)C(C)=O)nc12", "activity, negative = inhibition": "inactive: -21%"},
      {"smiles": "Cc1cc2c(cc1S(=O)(=O)CCC(=O)NC1CCCCC1C)OCC(=O)N2", "note": "(configuration not stated)", "Potency": "inconclusive: 0.708 µM [inhibitor, full curve, poor fit]"},
      {"smiles": "C=CCc1ccccc1OCCSc1nc(-c2cccs2)nc2cc(=O)[nH]n12", "Potency": "inconclusive: 89.1 µM [inhibitor, single point]"},
      {"smiles": "CCOC(=O)C1CCN(CC(=O)Nc2cc(C)c3c(=O)oc4ccccc4c3n2)CC1", "activity, negative = inhibition": "inactive: 5.35%"},
      {"smiles": "CCCn1c(=O)c(C(=O)NCc2ccccc2)c(O)c2ccccc21", "Potency": "inconclusive: 56.2 µM [inhibitor, partial curve, poor fit]"},
      {"smiles": "Cc1ccc(NC(=O)CN(C)S(=O)(=O)c2ccc3c(c2)n(C)c(=O)c(=O)n3C)cc1F", "activity, negative = inhibition": "inactive: 18.3%"},
      {"smiles": "Cc1nn(-c2ccccc2)c2nc(C3CC3)cc(C(=O)Nc3ccc(F)cc3)c12", "activity, negative = inhibition": "inactive: -7.57%"},
      {"smiles": "Nc1c(Br)cc(/C=C/c2ccnc3ccccc23)cc1Br", "Potency": "inconclusive: 89.1 µM [inhibitor, single point]"},
      {"smiles": "COc1ccc(CNC(=O)[C@@H](C)NC(=O)C2CCN(C(=O)[C@@H](N)CCSC)CC2)cc1", "Potency": "inconclusive: 1.58 µM [inhibitor, full curve, poor fit]"},
      {"smiles": "CN1CCN(C(=O)CCN2C(=O)/C(=C/c3cccc(Br)c3)SC2=S)CC1", "Potency": "inconclusive: 25.1 µM [inhibitor, single point]"},
      {"smiles": "CCOC(=O)c1cc(-c2ccccc2)n(CCC(=O)NCc2ccccc2Cl)c1C", "Potency": "inconclusive: 100 µM [inhibitor, single point]"},
      {"smiles": "COC(=O)c1sc2cccc(F)c2c1S(=O)(=O)N1CCN(c2cccc(OC)c2)CC1", "Potency": "inconclusive: 89.1 µM [inhibitor, single point]"},
      {"smiles": "COC(=O)Nc1ccc2c(c1)N(C(=O)CCN1CCN3CCCC3C1)c1ccccc1S2", "note": "(configuration not stated)", "Potency": "inconclusive: 25.1 µM [inhibitor, partial curve, poor fit]"},
      {"smiles": "O=[N+]([O-])c1ccc(OCCOCCOc2ccc([N+](=O)[O-])cc2)cc1", "Potency": "inconclusive: 1.78 µM [inhibitor, partial curve, poor fit]"},
      {"smiles": "Cc1cc(C)c(S(=O)(=O)N2CCC(n3c(C(F)(F)F)nc4cccnc43)CC2)c(C)c1", "activity, negative = inhibition": "inactive: 21.2%"},
      {"smiles": "O=C1Nc2ccccc2Oc2cc(Oc3cccc(Cl)c3)ccc21", "activity, negative = inhibition": "inactive: 13.4%"},
      {"smiles": "[O-][N+]12CCCc3cccc(c31)CCC2", "Potency": "inconclusive: 79.4 µM [inhibitor, partial curve]"},
      {"smiles": "COc1ccc(NC(=S)NNc2ccc(C(=O)O)cc2)cc1", "Potency": "inconclusive: 12.6 µM [inhibitor, full curve, poor fit]"},
      {"smiles": "C=CC[C@H](CC(=O)N(CCO)Cc1ccccc1)C(=O)N[C@@H](C)COC(=O)[C@@H](CC=C)Cc1ccc(F)cc1", "Potency": "inconclusive: 2.51 µM [inhibitor, partial curve, poor fit]"},
      {"smiles": "N#CC(Cc1ccc(O)c(O)c1)C(=O)N1CCc2ccccc21", "note": "(configuration not stated)", "Potency": "inconclusive: 25.1 µM [inhibitor, partial curve]"},
      {"smiles": "C=CC(O)(C#CCN(CC)CC)c1ccccc1", "note": "(configuration not stated)", "activity, negative = inhibition": "inactive: 3.52%"},
      {"smiles": "O/N=C1/C2C3CC4C5C3C1C5C1(OCCO1)C42", "note": "(configuration not stated)", "Potency": "inconclusive: 100 µM [inhibitor, partial curve, poor fit]"},
      {"smiles": "O=c1c(-c2cccc3ccccc23)[n+]([O-])c2ccccc2n1O", "Potency": "inconclusive: 14.1 µM [inhibitor, partial curve, poor fit]"},
      {"smiles": "O=C(N/N=C/c1ccc[nH]1)c1ccc(COc2cccc3cccnc23)cc1", "activity, negative = inhibition": "inactive: 72.7%"},
      {"smiles": "Cc1ccccc1-c1cc(C(=O)NCc2cccs2)n(CC2CC(c3cccnc3)=NO2)n1", "note": "(configuration not stated)", "Potency": "inconclusive: 39.8 µM [inhibitor, single point]"},
      {"smiles": "CN1c2ccsc2C(O)=C(C(=O)Nc2ccccc2)S1(=O)=O", "Potency": "inconclusive: 25.1 µM [inhibitor, partial curve, poor fit]"},
      {"smiles": "CC(=O)Nc1cccc(NC(=S)Nc2cccc(Cl)c2C)c1", "Potency": "inconclusive: 39.8 µM [inhibitor, single point]"},
      {"smiles": "c1ccc(N2CCN(c3nc4ccccc4n4nnnc34)CC2)cc1", "activity, negative = inhibition": "inactive: 6.93%"}
    ]}
  ]
}
